Measured data: PubChem BioAssay AID1053208 (Peter MacCallum Cancer Centre, 2014)

- Aim: 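Find knock-downs that sensitise mouse osteosarcoma cells to doxorubicin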 (primary screen)
- Cell system: mouse osteosarcoma cells, early-passage culture from an engineered mouse model of fibroblastic bone tumour
- Knock-down reagent: siRNA pool against mouse genes, 40 nM
- Time to read-out: about 120 h (48 h before drug, then 72 h with drug)
- Challenge: doxorubicin 100 nM for 72 h, roughly 30-40% inhibitory dose
- Measured: 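Viability read as ATP luminescence after 72 h of 100 nM doxorubicin or none, duplicate wells averaged, scaled to non-targeting siRNA, then expressed as robust z-scores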
- Reading the numbers: viability z-score with doxorubicin: higher = more viable cells under doxorubicin; viability z-score without drug: higher = more viable cells with knock-down alone
- Active means: 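a pool counts as active when its viability z-score with doxorubicin is -2 or below and its z-score without drug lies between -2 and 2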
In all, the deposit lists about 17,000 reagents; below is an unselected part. 788 of them (4.7%) count as active. 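Calls rest on z-score classes alone; an extra cut-off of viability at most 70% of control was not applied to them.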 Reagents against one gene are numbered here. Not all columns of the deposit are shown.

gene knocked down | reagent no. | combined z-score class | viability z-score with doxorubicin | viability z-score without drug | outcome
Ptbp2 (GeneID 56195) | 1 | high cell count without drug only | 0.22 | 3.37 | inactive
Rnase9 (GeneID 328401) | 1 | low cell count with doxorubicin only | -2.47 | -0.51 | active
Hsd11b2 (GeneID 15484) | 1 | no change with or without drug | -1.35 | -1.52 | inactive
Mcm2 (GeneID 17216) | 1 | no change with or without drug | 0.9 | -0.84 | inactive
Pdha2 (GeneID 18598) | 1 | no change with or without drug | 0.22 | -0.17 | inactive
Pkd2l1 (GeneID 329064) | 1 | no change with or without drug | -0.67 | -0.67 | inactive
Grp (GeneID 225642) | 1 | no change with or without drug | 0.56 | 0.17 | inactive
Fbh1 (GeneID 50755) | 1 | no change with or without drug | -0.67 | 0.34 | inactive
Mgst1 (GeneID 56615) | 1 | no change with or without drug | 0.22 | 1.69 | inactive
Vmn1r24 (GeneID 171191) | 1 | no change with or without drug | 0 | -0.34 | inactive
Ttbk1 (GeneID 106763) | 1 | no change with or without drug | 1.35 | 0.17 | inactive
Ttbk2 (GeneID 140810) | 1 | no change with or without drug | -0.22 | 1.52 | inactive
Gjd3 (GeneID 353155) | 1 | no change with or without drug | 0 | 0.84 | inactive
Arpc1a (GeneID 56443) | 1 | no change with or without drug | -0.56 | 0.67 | inactive
Gpat3 (GeneID 231510) | 1 | no change with or without drug | 0.9 | 1.69 | inactive
Dnph1 (GeneID 381101) | 1 | no change with or without drug | 0.9 | 0.67 | inactive
Syt12 (GeneID 171180) | 1 | no change with or without drug | -1.35 | 0.17 | inactive
Gm9517 (GeneID 67107) | 1 | no change with or without drug | -0.22 | -0.17 | inactive
Por (GeneID 18984) | 1 | no change with or without drug | 1.35 | 1.85 | inactive

Records listed so far marked active:
gene knocked down | reagent no. | combined z-score class | viability z-score with doxorubicin | viability z-score without drug | outcome
Rnase9 (GeneID 328401) | 1 | low cell count with doxorubicin only | -2.47 | -0.51 | active

Further results follow.
gene knocked down | reagent no. | combined z-score class | viability z-score with doxorubicin | viability z-score without drug | outcome
Rac2 (GeneID 19354) | 1 | no change with or without drug | 0.67 | -0.51 | inactive
Alkbh5 (GeneID 268420) | 1 | no change with or without drug | -1.24 | -0.51 | inactive
Macrod1 (GeneID 107227) | 1 | no change with or without drug | 0 | -0.17 | inactive
Steap1 (GeneID 70358) | 1 | high cell count with and without drug | 2.36 | 2.87 | inactive
Seh1l (GeneID 72124) | 1 | no change with or without drug | -1.46 | -1.18 | inactive
S1pr2 (GeneID 14739) | 1 | no change with or without drug | -0.45 | -0.67 | inactive
Usp17lc (GeneID 13532) | 1 | no change with or without drug | 0.22 | 0.51 | inactive
Slc6a20b (GeneID 22599) | 1 | no change with or without drug | 1.35 | 1.18 | inactive
Vmn1r84 (GeneID 171267) | 1 | no change with or without drug | 0.67 | -0.17 | inactive
Etv6 (GeneID 14011) | 1 | no change with or without drug | -0.34 | -1.01 | inactive
Tas2r134 (GeneID 387511) | 1 | no change with or without drug | 1.46 | 1.52 | inactive
Pex1 (GeneID 71382) | 1 | no change with or without drug | 0.45 | 0.17 | inactive
Acadsb (GeneID 66885) | 1 | no change with or without drug | 1.57 | -1.52 | inactive
Mapk15 (GeneID 332110) | 1 | no change with or without drug | -1.35 | 0.51 | inactive
Cx3cr1 (GeneID 13051) | 1 | no change with or without drug | 0.45 | -1.18 | inactive
Zkscan17 (GeneID 268417) | 1 | no change with or without drug | 0.67 | 1.52 | inactive
Slc38a2 (GeneID 67760) | 1 | low cell count with doxorubicin only | -2.92 | -0.84 | active
Ppp2r2c (GeneID 269643) | 1 | no change with or without drug | -1.24 | 1.01 | inactive
Dis3 (GeneID 72662) | 1 | no change with or without drug | 0.22 | -0.17 | inactive
Plekhm3 (GeneID 241075) | 1 | no change with or without drug | -0.67 | 0.84 | inactive
Large1 (GeneID 16795) | 1 | no change with or without drug | 0.79 | 0.17 | inactive
Tcp11l1 (GeneID 320554) | 1 | low cell count with doxorubicin only | -2.92 | -1.35 | active
Mcm9 (GeneID 71567) | 1 | high cell count without drug only | 1.57 | 2.02 | inactive
Mcf2 (GeneID 109904) | 1 | no change with or without drug | 0.56 | -0.67 | inactive
Txnl4b (GeneID 234723) | 1 | no change with or without drug | -1.01 | -0.17 | inactive
Mapk8 (GeneID 26419) | 1 | no change with or without drug | 0.9 | 0.51 | inactive
Prnd (GeneID 26434) | 1 | no change with or without drug | 0.22 | -0.67 | inactive
Rars2 (GeneID 109093) | 1 | high cell count with doxorubicin only | 3.04 | 1.52 | inactive
4930566N20Rik (GeneID 75924) | 1 | no change with or without drug | -0.22 | -1.85 | inactive
Arsb (GeneID 11881) | 1 | low cell count without drug only | -0.67 | -2.19 | inactive
Arsb (GeneID 11881) | 2 | high cell count with and without drug | 2.14 | 2.53 | inactive
